# The inconclusive results got no clear call from the source. Potencies of inconclusive entries are doubtful fits and often do not repeat.
# By UniProt entry, the sequences of proteins in these tests, tags left out. Where a name states a change or a piece, a line headed by the entry shows the natural chain unless it says otherwise.
# UniProt P37234: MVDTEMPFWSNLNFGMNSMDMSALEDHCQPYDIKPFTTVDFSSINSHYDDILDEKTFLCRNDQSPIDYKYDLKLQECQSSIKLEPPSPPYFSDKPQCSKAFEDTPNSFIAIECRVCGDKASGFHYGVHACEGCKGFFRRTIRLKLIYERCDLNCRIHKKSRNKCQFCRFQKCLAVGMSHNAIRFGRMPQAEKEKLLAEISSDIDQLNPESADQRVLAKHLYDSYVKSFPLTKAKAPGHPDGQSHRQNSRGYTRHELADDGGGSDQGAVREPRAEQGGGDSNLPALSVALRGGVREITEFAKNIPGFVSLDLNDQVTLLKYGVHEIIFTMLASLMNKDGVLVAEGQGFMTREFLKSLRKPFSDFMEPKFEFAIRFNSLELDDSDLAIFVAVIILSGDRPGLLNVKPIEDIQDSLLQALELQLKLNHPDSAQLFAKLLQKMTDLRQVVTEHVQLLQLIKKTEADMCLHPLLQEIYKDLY
# Target: frog Peroxisome Proliferator-activated Receptor-gamma (PPARg), pparg (gene 397769) (UniProt P37234)
# Assay: ATG_frPPARg_EcoTox2: Attagene TRANS-FACTORIAL EcoTox-2 HepG2 Assay for frog Peroxisome Proliferator-activated Receptor-gamma (PPARg); active means hit-call score of the fitted dose curve at least 0.9, where 1 is the maximum; inconclusive means response in the unintended direction; inactive means score below 0.9
# Protocol: ATG_EcoTox2 is a cell-based, multiplexed assay created by modifying the existing Attagene TRANS-FACTORIAL system to include a panel of nuclear receptors from some or all the following species: human (Homo sapiens), african clawed frog (Xenopus laevis), rainbow trout (Oncorhynchus mykiss), japanese medaka (Oryzias latipes), and zebrafish (Danio rerio). The ECOTOX2-FACTORIAL format uses HepG2, a human liver cell line, with measurements taken at 24 hours after chemical dosing in a 24-well plate. ATG_frPPARg_EcoTox2 is one of 29 assay components calculated in the ATG_EcoTox2 assay. It is designed to make measurements of mRNA induction, a form of inducible reporter, as detected with fluorescence intensity signals by Reverse transcription polymerase chain reaction (RT-PCR) and Capillary electrophoresis technology.The assay endpoint ATG_frPPARg_EcoTox2 was analyzed in the positive analysis fitting direction relative to DMSO as the negative control and baseline of activity. Using a type of inducible reporter, measures of mRNA for gain-of-signal activity can be used to understand the reporter gene at the transcription factor-level as they relate to the gene PPARg. Furthermore, this assay endpoint can be referred to as a primary readout, because this assay has produced multiple assay endpoints where this one serves a reporter gene function. […]
# Human liver HepG2 cells are transiently transfected with multiple reporter transcription units (MRTUs) in 6-well plates using FuGene 6 reagent (Roche; 3 ml FuGene/1 mg DNA). […] A major difference between the CIS and TRANS system is that in CIS activities of endogenous TFs are measured, whereas the TRANS assay evaluates changes in activities of exogenous, chimeric NR-Gal4 proteins. […] The fragments were purified using Qiaquick PCR columns (Qiagen), analyzed on an ABI 3130xL genetic analyzer (Applied Biosystems) with peak positions identified by using a set of X-rhodamine (ROX)-labeled MapMarker1000 molecular weight standards (BioVentures). […]
row,SMILES,AC50
1,O=C(O)C(F)(F)C(F)(F)C(F)(F)C(F)(F)C(F)(F)C(F)(F)C(F)(F)F,inconclusive: 75 µM
2,[Cl][Sn]([c]1ccccc1)([c]1ccccc1)[c]1ccccc1,inconclusive: 1.39 µM
3,O=P(Oc1ccccc1)(Oc1ccccc1)Oc1ccccc1,inconclusive: 50 µM

# Source: PubChem BioAssay AID2284349 (EPA ToxCast)
